Experimental data as given in paper PMC7804408.
These are yes or no findings as the source states them, for the method shown. Some results given as binding are weak or reduced against the parent protein; the word gives no strength.

Chains of the proteins cited; added tags and fusions are not shown. Residues count along the entry.
UniProt P0A850, residues 113-432: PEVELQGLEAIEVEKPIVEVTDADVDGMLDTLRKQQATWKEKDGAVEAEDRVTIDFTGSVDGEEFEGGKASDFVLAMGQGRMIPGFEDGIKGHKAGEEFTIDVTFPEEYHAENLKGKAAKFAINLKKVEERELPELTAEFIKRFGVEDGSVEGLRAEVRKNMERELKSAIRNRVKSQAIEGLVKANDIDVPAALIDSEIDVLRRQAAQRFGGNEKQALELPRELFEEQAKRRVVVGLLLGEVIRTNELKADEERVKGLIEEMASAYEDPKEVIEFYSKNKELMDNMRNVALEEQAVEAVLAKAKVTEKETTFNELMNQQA

Biological target: TFPA (TF 113-432) (E. coli) (UniProt P0A850)
Experiment: NMR titration; isotopically labelled TFPA or TFN (~0.2 mM) with unlabelled λO, ZBD or ClpX∆ZBD (AAA+ added with ADP); 1H-15N TROSY and 1H-13C HMQC, 600 MHz, 22 °C; 50 mM Tris-HCl pH 7.5, 200 mM KCl, 25 mM MgCl2, 2% glycerol, 5 mM β-mercaptoethanol; both purified

B1: λ phage replication protein λO (protein, UniProt P03688 1-333)
chain: MTNTAKILNFGRGNFAGQERNVADLDDGYARLSNMLLEAYSGADLTKRQFKVLLAILRKTYGWNKPMDRITDSQLSEITKLPVKRCNEAKLELVRMNIIKQQGGMFGPNKNISEWCIPQNEGKSPKTRDKTSLKLGDCYPSKQGDTKDTITKEKRKDYSSENSGESSDQPENDLSVVKPDAAIQSGSKWGTAEDLTAAEWMFDMVKTIAPSARKPNFAGWANDIRLMRERDGRNHRDMCVLFRWACQDNFWSGNVLSPAKLRDKWTQLEINRNKQQAGVTASKPKLDLTNTDWIYGVDLKTSPHRWLTLTVSRCVGSPTTCRNSTTKSRRYSR
binding: binds
